In PMC3483148:
These are yes or no findings as the source states them, for the method shown. For some assays here: In cells and extracts the contact can be indirect. Some results given as binding are weak or reduced against the parent protein; the word gives no strength.

By UniProt entry, the sequences of proteins in these tests, tags left out. Residues count along the entry.
UniProt Q9BZS1, residues 1-417: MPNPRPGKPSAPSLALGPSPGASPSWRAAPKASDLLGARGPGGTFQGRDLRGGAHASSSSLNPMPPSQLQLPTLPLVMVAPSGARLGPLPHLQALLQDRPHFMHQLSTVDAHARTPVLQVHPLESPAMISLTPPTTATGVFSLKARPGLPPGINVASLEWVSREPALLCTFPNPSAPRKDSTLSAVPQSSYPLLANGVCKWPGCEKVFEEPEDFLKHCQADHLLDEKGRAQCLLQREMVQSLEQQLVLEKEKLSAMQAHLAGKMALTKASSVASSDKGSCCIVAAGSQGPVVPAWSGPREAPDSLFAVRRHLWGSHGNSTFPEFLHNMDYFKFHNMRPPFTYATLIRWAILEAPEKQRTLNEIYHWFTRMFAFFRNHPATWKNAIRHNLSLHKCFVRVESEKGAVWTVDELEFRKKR
UniProt Q04206: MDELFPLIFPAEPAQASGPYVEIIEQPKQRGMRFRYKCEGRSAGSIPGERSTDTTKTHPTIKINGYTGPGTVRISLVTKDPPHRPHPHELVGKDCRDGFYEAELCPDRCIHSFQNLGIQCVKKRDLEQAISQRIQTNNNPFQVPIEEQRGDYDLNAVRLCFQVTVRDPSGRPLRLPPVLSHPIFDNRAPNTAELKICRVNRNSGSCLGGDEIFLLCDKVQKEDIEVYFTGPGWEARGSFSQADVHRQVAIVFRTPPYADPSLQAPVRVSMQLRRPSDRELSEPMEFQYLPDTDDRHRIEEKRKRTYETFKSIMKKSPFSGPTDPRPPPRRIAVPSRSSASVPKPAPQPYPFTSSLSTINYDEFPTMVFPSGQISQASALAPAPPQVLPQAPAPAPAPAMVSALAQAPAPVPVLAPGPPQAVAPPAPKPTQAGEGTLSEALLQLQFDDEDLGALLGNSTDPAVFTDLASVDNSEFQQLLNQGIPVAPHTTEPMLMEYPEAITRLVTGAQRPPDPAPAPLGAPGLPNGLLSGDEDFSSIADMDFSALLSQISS

Legend:
[1] = biological target: forkhead transcription factor FOXP3 (forkhead box P3) (human (endogenous in CD4+ T cells)) (UniProt Q9BZS1); assay: co-IP; endogenous FOXP3 immunoprecipitated with anti-FOXP3 on Protein-A Sepharose from 1% Nonidet P-40 total lysates of human CD4+ T cells stimulated 24 h with Dap3/B7 or unstimulated; Western blot with anti-RelA
[2] = biological target: forkhead transcription factor FOXP3 (forkhead box P3) (human (endogenous in CD4+ T cells)) (UniProt Q9BZS1); assay: Re-ChIP; formaldehyde-fixed chromatin of CD4+CD25- T cells 12 h after CD28 stimulation; first immunoprecipitation with anti-FOXP3 or anti-RelA, eluted with 10 mM DTT, second immunoprecipitation with the other antibody; PCR of Cd25 promoter region -319 +87

- binding [1]: binds
- binding [2]: binds
Substance: RelA/NF-κB (from UniProt Q04206 1-551)
